Residue numbers refer to the chain shown, from its start. No constants are given. Whether binding was seen depends on the method and setting. For some of these results: Binding seen in cells or lysates may run through a third protein. Some results given as binding are weak or reduced against the parent protein; the word gives no strength. Where a sequence is shown, tags or fusion partners need not be part of it.
Tests used:
[1] = target: T1, HA-tagged wild type MASL1 (human) (UniProt Q9Y4C4); assay: SEC; lysates of MASL1 transfected HEK293T cells on Superose 6 10/300; 20 mM Tris/HCl pH 7.5, 150 mM NaCl, 0.07% Tween-20; fractions probed by dot blot for HA and HSP60
T1 sequence: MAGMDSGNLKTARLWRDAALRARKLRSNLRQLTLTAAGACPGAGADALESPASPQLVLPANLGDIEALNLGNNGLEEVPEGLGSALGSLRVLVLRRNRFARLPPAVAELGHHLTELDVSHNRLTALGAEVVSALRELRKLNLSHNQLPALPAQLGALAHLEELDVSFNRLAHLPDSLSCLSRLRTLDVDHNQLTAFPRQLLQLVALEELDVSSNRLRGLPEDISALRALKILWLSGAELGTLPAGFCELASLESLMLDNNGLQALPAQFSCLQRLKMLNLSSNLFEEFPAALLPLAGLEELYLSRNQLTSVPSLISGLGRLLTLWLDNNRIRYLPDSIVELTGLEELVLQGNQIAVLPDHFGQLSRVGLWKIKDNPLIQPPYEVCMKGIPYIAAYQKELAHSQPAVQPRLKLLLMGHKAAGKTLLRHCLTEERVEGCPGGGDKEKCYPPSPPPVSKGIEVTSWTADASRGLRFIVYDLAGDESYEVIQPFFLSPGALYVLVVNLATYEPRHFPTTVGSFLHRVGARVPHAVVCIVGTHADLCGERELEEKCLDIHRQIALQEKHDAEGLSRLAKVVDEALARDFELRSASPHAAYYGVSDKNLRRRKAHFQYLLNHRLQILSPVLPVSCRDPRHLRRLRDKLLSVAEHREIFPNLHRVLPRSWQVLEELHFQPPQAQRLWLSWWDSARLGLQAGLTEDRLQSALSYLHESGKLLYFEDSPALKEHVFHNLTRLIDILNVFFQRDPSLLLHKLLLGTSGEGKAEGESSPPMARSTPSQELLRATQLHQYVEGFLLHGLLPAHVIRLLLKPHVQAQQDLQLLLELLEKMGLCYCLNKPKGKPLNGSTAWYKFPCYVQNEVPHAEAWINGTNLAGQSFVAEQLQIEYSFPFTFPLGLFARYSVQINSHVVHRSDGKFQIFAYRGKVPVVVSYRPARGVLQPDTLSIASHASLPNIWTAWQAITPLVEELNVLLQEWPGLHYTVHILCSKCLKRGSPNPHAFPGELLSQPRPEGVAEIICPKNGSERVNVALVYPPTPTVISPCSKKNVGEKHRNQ

By UniProt entry, the sequences of proteins in these tests, tags left out. Residues count along the entry.
UniProt P10809, residues 27-573: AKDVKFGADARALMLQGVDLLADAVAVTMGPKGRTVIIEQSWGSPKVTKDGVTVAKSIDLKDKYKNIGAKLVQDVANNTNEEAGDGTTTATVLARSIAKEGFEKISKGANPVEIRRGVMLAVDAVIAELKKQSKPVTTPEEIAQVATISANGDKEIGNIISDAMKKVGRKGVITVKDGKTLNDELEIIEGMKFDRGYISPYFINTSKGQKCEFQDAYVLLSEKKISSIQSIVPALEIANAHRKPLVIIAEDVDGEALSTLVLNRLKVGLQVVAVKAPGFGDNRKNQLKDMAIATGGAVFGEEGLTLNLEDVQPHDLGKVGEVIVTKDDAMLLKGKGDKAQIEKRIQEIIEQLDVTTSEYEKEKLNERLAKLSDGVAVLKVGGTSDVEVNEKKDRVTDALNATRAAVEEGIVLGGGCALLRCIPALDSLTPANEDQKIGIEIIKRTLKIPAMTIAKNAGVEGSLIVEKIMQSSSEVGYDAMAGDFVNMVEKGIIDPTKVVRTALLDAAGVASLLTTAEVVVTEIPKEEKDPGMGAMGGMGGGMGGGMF

[2] = target: T2, HA-tagged K422A MASL1 (human) (UniProt Q9Y4C4); assay: as above
T2 sequence: T1 sequence with K422A

[3] = target: T3, FLAG-tagged K422A MASL1 (human) (UniProt Q9Y4C4); assay: co-IP; FLAG-tagged MASL1 immunoprecipitated from HEK293T lysates, immunoblot for HSP60
T3 sequence: T1 sequence with K422A

[4] = target: T4, FLAG-tagged wild type MASL1 (malignant fibrous histiocytoma amplified sequences with leucine-rich tandem repeats 1) (human) (UniProt Q9Y4C4); assay: as above
T4 sequence: T1 sequence

Measured: binding

Heat shock protein 60 (HSP60) (from UniProt P10809 27-573)
binds: all assays above

Reference: publication PMC3995007, “GTP binding controls complex formation by the human ROCO protein MASL1” (The Febs Journal, 2013)
